System: Mongrel dogs
Test: Acute cardiac infarction model: LDA ligature and reperfusion in dogs
Type: in vivo
Conditions: dog
Description: Mongrel dogs (body weight: 8 to 20 kg) under anesthesia were ventilated artificially and underwent a left thracotomy. […] A polyethylene cannula was inserted into the femoral artery, and the blood pressure and heart rate were recorded A cannula was inserted into the […] of a drug and also into the carotid artery from which a blood sample was to be taken. After stabilization period of the test preparation, LDA was ligated with a clamp. After 2 hours from the ligature, the clamp was released for reperfusion. After observation for the following 4 hours, the heart was excised. […] Then, the heart was washed and sliced at 1 cm intervals from the apex in the direction vertical to the longer axis. Each slice at the left ventricle was divided into a part which was in risk of cardiac infarction indicated by Evans' Blue stain (hereinafter referred to as risk area) and a normal area, and each area was weighed. The weight of the left ventricle (the sum of the risk area and the normal area) and that of the risk area of each slice were individually added up to obtain the weight of the whole left ventricle and the total weight of the risk area. Further, of each slice, the area of the risk area which was not stained with Evans' Blue and that of a cardiac infarction area within the risk area which remained white, i.e., which was stained neither in blue with Evans' Blue nor in red with triphenyltetrazolium chloride, were measured to obtain a ratio of cardiac infarction part to the whole left ventricle (infarction size). […] The experiment was conducted for the following groups.

With `O=C(c1ccc(F)cc1)C1CCN(CCn2c(=O)nc3n(c2=O)CCCC3)CC1` [Example 1, 3-[2-[4-(4-Fluorobenzoyl)piperidin-1-yl]ethyl]-6,7,8,9-tetrahydro-2H-pyrido[1,2-a]-1,3,5-triazine-2,4(3H)-dione] the “influence on blood pressure (in words)” value (hydrochloride 1 mg/kg/hr intravenous drip) was “only a slight influence”.
For `Cl.O=C(c1ccc(F)cc1)C1CCN(CCn2c(=O)nc3n(c2=O)CCCC3)CC1` [Example 2, 3-[2-[4-(4-Fluorobenzoyl)piperidin-1-yl]ethyl]-6,7,8,9-tetrahydro-2H-pyrido[1,2-a]-1,3,5-triazine-2,4(3H)-dione Hydrochloride], the “Left Ventricle Weight” value (1 mg/kg/hr intravenous drip, mean ± S.E.M., control 68 ± 5) was 65 ± 5 g, the “Blood Pressure” value (1 mg/kg/hr intravenous drip, mean ± S.E.M., control 118 ± 4) was 103 ± 4 mmHg and the “Heart Rate” value (1 mg/kg/hr intravenous drip, mean ± S.E.M., control 158 ± 8) was 150 ± 9 beats/min. For the same compound, the “Dangerous part Weight” value (risk area, 1 mg/kg/hr intravenous drip, mean ± S.E.M., control 21 ± 3) was 19 ± 2 g.
